# Source: paper PMC9599603
# Protein sequences, listed by entry. Tags and fused reporters are not part of them.
# UniProt Q8IC05: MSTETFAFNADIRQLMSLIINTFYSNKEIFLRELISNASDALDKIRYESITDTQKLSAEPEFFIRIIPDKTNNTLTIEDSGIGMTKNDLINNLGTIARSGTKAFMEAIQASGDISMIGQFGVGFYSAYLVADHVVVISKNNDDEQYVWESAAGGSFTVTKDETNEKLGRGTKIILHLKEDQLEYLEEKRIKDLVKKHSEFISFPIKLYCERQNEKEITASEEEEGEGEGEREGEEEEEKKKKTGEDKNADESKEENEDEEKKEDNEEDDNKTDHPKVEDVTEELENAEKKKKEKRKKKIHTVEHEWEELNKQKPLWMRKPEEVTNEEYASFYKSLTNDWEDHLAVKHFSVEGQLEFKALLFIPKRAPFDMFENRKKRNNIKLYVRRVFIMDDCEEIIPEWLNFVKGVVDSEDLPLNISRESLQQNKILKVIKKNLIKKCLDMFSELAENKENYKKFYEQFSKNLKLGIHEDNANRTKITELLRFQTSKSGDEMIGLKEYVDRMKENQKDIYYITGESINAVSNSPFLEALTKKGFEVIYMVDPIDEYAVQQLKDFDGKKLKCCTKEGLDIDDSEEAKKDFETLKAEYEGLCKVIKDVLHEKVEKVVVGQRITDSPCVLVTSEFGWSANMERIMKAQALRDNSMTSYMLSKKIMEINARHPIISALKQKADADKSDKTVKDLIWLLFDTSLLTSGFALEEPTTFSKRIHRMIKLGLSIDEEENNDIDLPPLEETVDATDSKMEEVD
# Results are given in words; binding and its absence hold for the method and conditions named. Binding seen in cells or lysates may run through a third protein. Some entries that bind do so weakly or less than the wild type. For part of these data: Sequences can lack the tags named with a protein.
# B1: Glutathione S-Transferase (GST)-tagged PfSir2A (protein, UniProt Q8IE47 1-273)
# chain: MGNLMISFLKKDTQSITLEELAKIIKKCKHVVALTGSGTSAESNIPSFRGSSNSIWSKYDPRIYGTIWGFWKYPEKIWEVIRDISSDYEIEINNGHVALSTLESLGYLKSVVTQNVDGLHEASGNTKVISLHGNVFEAVCCTCNKIVKLNKIMLQKTSHFMHQLPPECPCGGIFKPNIILFGEVVSSDLLKEAEEEIAKCDLLLVIGTSSTVSTATNLCHFACKKKKKIVEINISKTYITNKMSDYHVCAKFSELTKVANILKGSSEKNKKIM
# B2: PfSir2A, endogenous (protein, UniProt Q8IE47 1-273)
# chain: B1 chain
# Columns and labels:
# [1] = biological target: T1, PfSir2A, endogenous (P. falciparum (endogenous in 3D7 parasites)) (UniProt Q8IE47); test: co-IP; schizont stage parasite lysate; anti-Hsp90 or anti-PfSir2A cross-linked to Protein A/G Plus Agarose beads (Pierce Crosslink Immunoprecipitation Kit); control IgG; Western blot
# T1 sequence: B1 chain
# [2] = biological target: His6-tagged PfHsp90 (P. falciparum) (UniProt Q8IC05); test: pull-down; copurification: bacterial lysates with His6-PfHsp90 and GST-PfSir2A (or GST alone) combined, applied to a Ni-NTA column, eluted with 250 mM imidazole, Western blot with anti-His6 and anti-GST
# [3] = biological target: PfHsp90 (PF3D7_0708400), endogenous (P. falciparum (endogenous in 3D7 parasites)) (UniProt Q8IC05); test: co-IP; schizont stage parasite lysate; anti-Hsp90 or anti-PfSir2A cross-linked to Protein A/G Plus Agarose beads (Pierce Crosslink Immunoprecipitation Kit); control IgG; Western blot
molecule,measurement,setting,value
"PfHsp90 (PF3D7_0708400), endogenous (from UniProt Q8IC05 1-745)",binding,[1],binds
B1,binding,[2],binds
B2,binding,[3],binds
